The list shows a part of the results. Many values rest on one well or one pass, so single values are uncertain.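 Cells were imaged in 1,536-well plates, and nuclei stained with an antibody against cleaved PARP were counted against all DNA-stained nuclei to give the apoptosis fraction. Screening doses were chosen to leave most cells alive, and resting and induced cleaved-PARP levels differ strongly between cell lines.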
The compounds below were run on WM115 (assay: cleaved PARP positive nuclei fraction relative to DMSO control; melanoma cells; higher = more apoptosis). Settings: library dose: low library concentration; 72 h.

Row | SMILES | cleaved PARP positive nuclei fraction
1 | Nc1ncn([C@H]2C[C@H](O)[C@@H](CO)O2)c(=O)n1 [decitabine] + CCc1ccc(CCOc2ccc(CC3SC(=O)NC3=O)cc2)nc1 [pioglitazone] (first compound 0.1 µM, partner dose 2 µM) | 246%
2 | CN1CCN(c2ccc3nc(-c4c(N)c5c(F)cccc5[nH]c4=O)[nH]c3c2)CC1 [Dovitinib] + CN(NC(=O)CC(=O)NN(C)C(=S)c1ccccc1)C(=S)c1ccccc1 [STA4783] (first compound 0.1 µM, partner dose 0.006 µM) | 186%
3 | Nc1ccn([C@@H]2O[C@H](CO)[C@@H](O)C2(F)F)c(=O)n1 [gemcitabine] + O=c1cc(-c2cccc3c2Sc2ccccc2S3)oc(N2CCOCC2)c1 [KU55933] (first compound 0.0004 µM, partner dose 1 µM) | 39.5%
4 | CCCS(=O)(=O)Nc1ccc(F)c(C(=O)c2c[nH]c3ncc(Cl)cc23)c1F + COc1cc(Nc2ncc(F)c(Nc3ccc4c(n3)NC(=O)C(C)(C)O4)n2)cc(OC)c1OC [Tamatinib] (first compound 0.08 µM, partner dose 0.4 µM) | 170%
5 | Cn1c(=O)n(-c2ccc(C(C)(C)C#N)cc2)c2c3cc(-c4cnc5ccccc5c4)ccc3ncc21 + Oc1cc(-c2nc(-c3ccccc3)[nH]c2-c2ccncc2)ccc1Cl [L779450] (first compound 0.004 µM, partner dose 0.2 µM) | 428%
6 | CN1CCN(c2ccc3nc(-c4c(N)c5c(F)cccc5[nH]c4=O)[nH]c3c2)CC1 [Dovitinib] + COc1ccc(COc2ccc(Cc3cnc(N)nc3N)cc2OC)cc1 [GW2580] (first compound 0.1 µM, partner dose 1 µM) | 231%
7 | C=C(c1ccc(C(=O)O)cc1)c1cc2c(cc1C)C(C)(C)CCC2(C)C [Bexarotene] + CCc1ccc(CCOc2ccc(CC3SC(=O)NC3=O)cc2)nc1 [pioglitazone] (first compound 2 µM, partner dose 2 µM) | 10.1%
8 | Cc1cc(Nc2cc(N3CCN(C)CC3)nc(/C=C/c3ccccc3)n2)n[nH]1 + CC(C)CCN1c2nc(Nc3cc(F)c(O)c(F)c3)ncc2N(C)C(=O)C1C [BID1870] (first compound 0.04 µM, partner dose 0.2 µM) | 86.2%
9 | CN1CCN(c2ccc3nc(-c4c(N)c5c(F)cccc5[nH]c4=O)[nH]c3c2)CC1 [Dovitinib] + CN(C)S(=O)(=O)c1ccc2c(c1)/C(=C/c1cc3c([nH]1)CCCC3)C(=O)N2 [SU6656] (first compound 0.1 µM, partner dose 0.4 µM) | 216%
10 | CC(C)C[C@H](NC(=O)[C@H](Cc1ccccc1)NC(=O)c1cnccn1)B(O)O [Bortezomib] + COc1cc2ncnc(Nc3ccc(Oc4ccccc4)cc3)c2cc1OC [SrcI1] (first compound 0.001 µM, partner dose 2 µM) | 42.4%
11 | CC(C)C[C@H](NC(=O)[C@H](Cc1ccccc1)NC(=O)c1cnccn1)B(O)O [Bortezomib] + C[C@@H]1CCN(C(=O)CC#N)C[C@@H]1N(C)c1ncnc2[nH]ccc12 [CP690550] (first compound 0.001 µM, partner dose 1 µM) | 51.1%
12 | CNC(=O)c1cc(Oc2ccc(NC(=O)Nc3ccc(Cl)c(C(F)(F)F)c3)cc2)ccn1 [sorafenib] + c1cc(-c2cnn3cc(-c4ccc(OCCN5CCCCC5)cc4)cnc23)ccn1 [Dorsomorphin] (first compound 0.4 µM, partner dose 0.4 µM) | 54%
13 | O=C(O)c1ccc2c(c1)nc(Nc1cccc(Cl)c1)c1ccncc12 + O=C(Nc1cccc(Cl)c1)Nc1ncc(CCNc2ncnc3ccsc23)s1 [SNS314] (first compound 0.4 µM, partner dose 0.0008 µM) | 482%
14 | CCCS(=O)(=O)Nc1ccc(F)c(C(=O)c2c[nH]c3ncc(Cl)cc23)c1F + CCc1ccc(CCOc2ccc(CC3SC(=O)NC3=O)cc2)nc1 [pioglitazone] (first compound 0.08 µM, partner dose 2 µM) | 120%
15 | O=C(O)c1ccc2c(c1)nc(Nc1cccc(Cl)c1)c1ccncc12 + CC(C)(C)c1cnc(CSc2cnc(NC(=O)C3CCNCC3)s2)o1 [SNS-032] (first compound 0.4 µM, partner dose 0.01 µM) | 156%

As a short view, some entries already given.
Row | SMILES | cleaved PARP positive nuclei fraction
6 | CN1CCN(c2ccc3nc(-c4c(N)c5c(F)cccc5[nH]c4=O)[nH]c3c2)CC1 [Dovitinib] + COc1ccc(COc2ccc(Cc3cnc(N)nc3N)cc2OC)cc1 [GW2580] (first compound 0.1 µM, partner dose 1 µM) | 231%
7 | C=C(c1ccc(C(=O)O)cc1)c1cc2c(cc1C)C(C)(C)CCC2(C)C [Bexarotene] + CCc1ccc(CCOc2ccc(CC3SC(=O)NC3=O)cc2)nc1 [pioglitazone] (first compound 2 µM, partner dose 2 µM) | 10.1%

— the supplement of paper PMC4604168 (melanoma cell lines)
